Assay results as given in publication PMC4014447.

Target: Myc-tagged wild-type LMX1B (long form, -L) (mouse)
Assay: co-IP; HEK 293T cells transfected with pcDNA-LDB1 along with WT-Myc and ICST-FLAG as indicated; lysate immunoprecipitated with anti-c-Myc agarose; Western blot with anti-Myc, anti-FLAG and anti-LDB1

- binding: binds
B1: LIM domain binding protein 1 (LDB1) (protein, UniProt P70662 1-411)
chain: MSVGCACPGCSSKSFKLYSPKEPPNGNAFPPFHPGTMLDRDVGPTPMYPPTYLEPGIGRHTPYGNQTDYRIFELNKRLQNWTEECDNLWWDAFTTEFFEDDAMLTITFCLEDGPKRYTIGRTLIPRYFRSIFEGGATELYYVLKHPKEAFHSNFVSLDCDQGSMVTQHGKPMFTQVCVEGRLYLEFMFDDMMRIKTWHFSIRQHRELIPRSILAMHAQDPQMLDQLSKNITRCGLSNSTLNYLRLCVILEPMQELMSRHKTYSLSPRDCLKTCLFQKWQRMVAPPAEPARQQPSKRRKRKMSGGSTMSSGGGNTNNSNSKKKSPASTFALSSQVPDVMVVGEPTLMGGEFGDEDERLITRLENTQFDAANGIDDEDSFNNSPALGANSPWNSKPPSSQESKSENPTSQASQ

Results are given in words; binding and its absence hold for the method and conditions named. Binding seen in cells or lysates may run through a third protein. Binding can be weak; no strength is given.
